# In paper PMC5072635 (PLoS ONE, 2016):
# Where two headings read alike, the source gives them in different places.
# Tested on: HSA
# Protocol: All samples were degassed, and ITC was performed at room temperature as previously described using MicroCal VP-ITC calorimeter. […] The data were analyzed using a single-site binding model provided in the ITC analysis software package. […] The values for ΔH, Kd and stoichiometry averaged ± standard deviation. […] The values for stoichiometry and binding affinity were derived from the ITC experiments.
# While the presence of other ligands would increase the proportion of free floating GML unbound to albumin, we assumed there were no other albumin ligands present in the system to simplify our calculations.
# (PDF) Click here for additional data file.
smiles,measurement,setting,value
"CCCCCCCCCCCC(=O)OCC(O)CO (centres unmarked) [GML, Glycerol monolaurate]",HSA bound to GML,"0.2% HSA, 10 μg/ml GML",38%
same,HSA bound to GML,"0.2% HSA, 20 μg/ml GML",75%
same,HSA bound to GML,"1% HSA, 10 μg/ml GML",7.9%
same,HSA bound to GML,"1% HSA, 20 μg/ml GML",15.9%
same,HSA bound to GML,"2% HSA, 10 and 20 μg/ml GML",< 10%
